Measurements taken from the supplement of paper PMC8728848.
The other results are listed elsewhere or left out.

Key:
Experiment in all cases: glycan array binding signal (z-score within array); higher = stronger binding
Conditions in all cases: glycan notation: IUPAC condensed, linker removed
[1] = molecular target: GlcNAc(b1-3)GalNAc
How it was run: (§1)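 From the Consortium for Functional Glycomics database, 3228 arrays were curated, keeping only those whose protein sequence was available. Binding is given as a within-array Z-score averaged across arrays sharing a protein sequence and across linkers. Negative Z-scores can be read as non-binding.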

[2] = molecular target: GlcNAc(b1-3)Man
How it was run: as §1

[3] = molecular target: GlcNAc(b1-3)[GlcNAc(b1-4)][GlcNAc(b1-6)]GlcNAc
How it was run: as §1

[4] = molecular target: GlcNAc(b1-3)[GlcNAc(b1-6)]Gal(b1-4)GlcNAc
How it was run: as §1

[5] = molecular target: GlcNAc(b1-3)[GlcNAc(b1-6)]GalNAc
How it was run: as §1

[6] = molecular target: GlcNAc(b1-4)Gal(b1-4)GlcNAc
How it was run: as §1

[7] = molecular target: GlcNAc(b1-4)GlcNAc
How it was run: as §1

[8] = molecular target: GlcNAc(b1-4)GlcNAc(b1-4)GlcNAc
How it was run: as §1

[9] = molecular target: GlcNAc(b1-4)GlcNAc(b1-4)GlcNAc(b1-4)GlcNAc(b1-4)GlcNAc
How it was run: as §1

[10] = molecular target: GlcNAc(b1-4)GlcNAc(b1-4)GlcNAc(b1-4)GlcNAc(b1-4)GlcNAc(b1-4)GlcNAc
How it was run: as §1

[11] = molecular target: GlcNAc(b1-4)[GlcNAc(b1-6)]GalNAc
How it was run: as §1

[12] = molecular target: GlcNAc(b1-6)Gal(b1-4)GlcNAc
How it was run: as §1

[13] = molecular target: GlcNAc(b1-6)GalNAc
How it was run: as §1

[14] = molecular target: GlcNAc6S(b1-3)Gal(b1-4)GlcNAc
How it was run: as §1

[15] = molecular target: Kdn(a2-3)Gal(b1-3)GalNAc
How it was run: as §1

[16] = molecular target: Kdn(a2-3)Gal(b1-3)GlcNAc
How it was run: as §1

[17] = molecular target: Kdn(a2-3)Gal(b1-4)Glc
How it was run: as §1

[18] = molecular target: Kdn(a2-3)Gal(b1-4)GlcNAc
How it was run: as §1

[19] = molecular target: Kdn(a2-3)Gal(b1-4)[Fuc(a1-3)]GlcNAc
How it was run: as §1

[20] = molecular target: Kdn(a2-6)Gal(b1-4)GlcNAc
How it was run: as §1

[21] = molecular target: Man(a1-2)Man(a1-2)Man(a1-3)Man
How it was run: as §1

[22] = molecular target: Man(a1-2)Man(a1-2)Man(a1-6)[Man(a1-3)]Man
How it was run: as §1

[23] = molecular target: Man(a1-2)Man(a1-3)Man
How it was run: as §1

[24] = molecular target: Man(a1-2)Man(a1-3)[Man(a1-2)Man(a1-6)]Man
How it was run: as §1

[25] = molecular target: Man(a1-2)Man(a1-3)[Man(a1-2)Man(a1-6)]Man(a1-6)[Man(a1-2)Man(a1-2)Man(a1-3)]Man
How it was run: as §1

[26] = molecular target: Man(a1-2)Man(a1-3)[Man(a1-2)Man(a1-6)]Man(a1-6)[Man(a1-2)Man(a1-2)Man(a1-3)]Man(b1-4)GlcNAc(b1-4)GlcNAc
How it was run: as §1

[27] = molecular target: Man(a1-2)Man(a1-3)[Man(a1-6)]Man(a1-6)[Man(a1-2)Man(a1-3)]Man(b1-4)GlcNAc(b1-4)GlcNAc
How it was run: as §1

[28] = molecular target: Man(a1-2)Man(a1-6)[Man(a1-3)]Man(a1-6)[Man(a1-2)Man(a1-2)Man(a1-3)]Man
How it was run: as §1

[29] = molecular target: Man(a1-2)Man(a1-6)[Man(a1-3)]Man(a1-6)[Man(a1-2)Man(a1-2)Man(a1-3)]Man(b1-4)GlcNAc(b1-4)GlcNAc
How it was run: as §1

[30] = molecular target: Man(a1-3)[Man(a1-6)]Man
How it was run: as §1

[31] = molecular target: Man(a1-3)[Man(a1-6)]Man(a1-6)[Man(a1-2)Man(a1-3)]Man(b1-4)GlcNAc(b1-4)GlcNAc
How it was run: as §1

[32] = molecular target: Man(a1-3)[Man(a1-6)]Man(a1-6)[Man(a1-3)]Man
How it was run: as §1

[33] = molecular target: Man(a1-3)[Man(a1-6)]Man(a1-6)[Man(a1-3)]Man(b1-4)GlcNAc(b1-4)GlcNAc
How it was run: as §1

[34] = molecular target: Man(a1-3)[Man(a1-6)]Man(b1-4)GlcNAc(b1-4)GlcNAc
How it was run: as §1

[35] = molecular target: Man(a1-3)[Man(a1-6)]Man(b1-4)GlcNAc(b1-4)[Fuc(a1-6)]GlcNAc
How it was run: as §1

[36] = molecular target: Man(a1-6)Man
How it was run: as §1

[37] = molecular target: Man(b1-4)GlcNAc
How it was run: as §1

[38] = molecular target: MurNAc(b1-4)GlcNAc
How it was run: as §1

B1: LlpA (Arthrobacter sp) (protein)
chain: MGSSHHHHHHSSGLVPRGSHMTLHPETALRPGAAATSPNSRYRLLYQTDGNLVLYGPDGPLWDSGTNGHGAGACIMQADGNLVLYGPNDEYVWDTETDNNPGSRLVIQDDGNAVIYRPDGSPLWATETCQPPGSADSHVLQSGSTLTPTHGIRSANGLYGLLYQTDGNLVFYGPDGPLWDSGTNGRGAGACIMQPDGNLVLYGPHDEYVWDTETDNNPGSRLVIQDDGNAVIYRPDGNPTWVTGTH
- glycan array binding signal (z-score) [1]: 0.451
- glycan array binding signal (z-score) [2]: 1.02
- glycan array binding signal (z-score) [3]: -0.817
- glycan array binding signal (z-score) [4]: 1.12
- glycan array binding signal (z-score) [5]: -0.373
- glycan array binding signal (z-score) [6]: 0.483
- glycan array binding signal (z-score) [7]: 0.312
- glycan array binding signal (z-score) [8]: -0.587
- glycan array binding signal (z-score) [9]: 0.068
- glycan array binding signal (z-score) [10]: -0.221
- glycan array binding signal (z-score) [11]: -0.713
- glycan array binding signal (z-score) [12]: 1.33
- glycan array binding signal (z-score) [13]: 0.293
- glycan array binding signal (z-score) [14]: 1.25
- glycan array binding signal (z-score) [15]: 0.507
- glycan array binding signal (z-score) [16]: 0.196
- glycan array binding signal (z-score) [17]: -0.782
- glycan array binding signal (z-score) [18]: -0.236
- glycan array binding signal (z-score) [19]: -1.12
- glycan array binding signal (z-score) [20]: 0.328
- glycan array binding signal (z-score) [21]: -0.521
- glycan array binding signal (z-score) [22]: -0.486
- glycan array binding signal (z-score) [23]: -1.26
- glycan array binding signal (z-score) [24]: -1.05
- glycan array binding signal (z-score) [25]: -0.119
- glycan array binding signal (z-score) [26]: -0.452
- glycan array binding signal (z-score) [27]: -0.796
- glycan array binding signal (z-score) [28]: -0.328
- glycan array binding signal (z-score) [29]: 0.31
- glycan array binding signal (z-score) [30]: 0.327
- glycan array binding signal (z-score) [31]: 0.429
- glycan array binding signal (z-score) [32]: 0.524
- glycan array binding signal (z-score) [33]: 0.091
- glycan array binding signal (z-score) [34]: -0.149
- glycan array binding signal (z-score) [35]: 0.031
- glycan array binding signal (z-score) [36]: -0.068
- glycan array binding signal (z-score) [37]: -0.389
- glycan array binding signal (z-score) [38]: -0.798
